The target of this experiment is Transcription factor Yin Yang 1 (YY1) (human (endogenous in T24 and 5637)) (UniProt P25490). The experiment can be described thus: co-IP; lysates (300 uL) of T24 and 5637 cells incubated with 2 ug YY1 or IgG antibody for 30 min at 4°C, then protein A/G beads overnight at 4°C; beads washed three times with PBS; western blotting. (In western blotting, separated proteins are transferred to a membrane and probed.)

Protein sequences, listed by entry. Tags and fused reporters are not part of them.
UniProt P25490: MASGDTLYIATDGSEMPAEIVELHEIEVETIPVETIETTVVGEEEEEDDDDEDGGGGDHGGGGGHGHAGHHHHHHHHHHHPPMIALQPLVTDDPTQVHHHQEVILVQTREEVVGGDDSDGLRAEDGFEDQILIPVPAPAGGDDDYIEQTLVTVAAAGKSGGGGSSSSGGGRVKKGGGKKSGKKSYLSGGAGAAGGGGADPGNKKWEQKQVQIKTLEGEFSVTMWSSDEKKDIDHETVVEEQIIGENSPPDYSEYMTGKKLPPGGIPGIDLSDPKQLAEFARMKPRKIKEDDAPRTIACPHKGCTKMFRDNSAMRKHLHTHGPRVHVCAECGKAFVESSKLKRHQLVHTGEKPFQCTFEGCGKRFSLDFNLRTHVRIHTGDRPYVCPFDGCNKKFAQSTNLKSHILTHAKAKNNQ

These are yes or no findings as the source states them, for the method shown. Binding seen in cells or lysates may run through a third protein. Some binding calls cover weakened binding; strength is not graded here.

B1: Cartilage acidic protein 1 (CRTAC1) (protein, UniProt Q9NQ79 28-661)
chain: SQRAEPMFTAVTNSVLPPDYDSNPTQLNYGVAVTDVDHDGDFEIVVAGYNGPNLVLKYDRAQKRLVNIAVDERSSPYYALRDRQGNAIGVTACDIDGDGREEIYFLNTNNAFSGVATYTDKLFKFRNNRWEDILSDEVNVARGVASLFAGRSVACVDRKGSGRYSIYIANYAYGNVGPDALIEMDPEASDLSRGILALRDVAAEAGVSKYTGGRGVSVGPILSSSASDIFCDNENGPNFLFHNRGDGTFVDAAASAGVDDPHQHGRGVALADFNRDGKVDIVYGNWNGPHRLYLQMSTHGKVRFRDIASPKFSMPSPVRTVITADFDNDQELEIFFNNIAYRSSSANRLFRVIRREHGDPLIEELNPGDALEPEGRGTGGVVTDFDGDGMLDLILSHGESMAQPLSVFRGNQGFNNNWLRVVPRTRFGAFARGAKVVLYTKKSGAHLRIIDGGSGYLCEMEPVAHFGLGKDEASSVEVTWPDGKMVSRNVASGEMNSVLEILYPRDEDTLQDPAPLECGQGFSQQENGHCMDTNECIQFPFVCPRDKPVCVNTYGSYRCRTNKKCSRGYEPNEDGTACVGTLGQSPGPRPTTPTAAAATAAAAAAAGAATAAPVLVDGDLNLGSVVKESCEPSC
For the molecule B1, the binding entry is “binds”.

These data come from article PMC8809913.
